Reference: patent publication US20090149461A1, “METHOD OF TREATING CANCER” (ABBOTT LABORATORIES, priority 2007, published 2009)
The name of at least one read-out is uncertain.

Test: Phase 1/2a study pharmacokinetics
Type: in vivo, human
Details: post-dose
Experimental: There was no drug administered for the 72 hours following the first dose of the first cycle (Day-3) in order to assess the single-dose pharmacokinetics and toxicity.
Additional blood samples were collected at 0 hour (pre dose) on Day 14, Cycle 2 through Cycle 6. Sufficient blood were collected to provide approximately 1 mL plasma from each sample. A total of 27 blood samples (approximately 81 mL) were collected per subject for pharmacokinetic analysis during Cycle 1 and one additional blood sample per subject per cycle in the following cycles (up to Cycle 6).
The plasma samples were transferred using plastic pipettes into screw-capped polypropylene tubes labeled with the drug number name, type of sample (plasma), the protocol number, the subject number, the study cycle and day and the planned time of sampling relative to dosing. The plasma samples were frozen at −20° C. or colder within 1 hour after collection and will remain frozen until shipped.
Additional parameters may be calculated if useful in the interpretation of the data.
Subjects self-administered ABT-263 orally once daily (QD). Each dose were taken with approximately 240 mL of water. […]

With CC1(C)CCC(c2ccc(Cl)cc2)=C(CN2CCN(c3ccc(C(=O)NS(=O)(=O)c4ccc(N[C@H](CCN5CCOCC5)CSc5ccccc5)c(S(=O)(=O)C(F)(F)F)c4)cc3)CC2)C1 [ABT-263, N-(4-(4-((2-(4-chlorophenyl)-5,5-dimethyl-1-cyclohex-1-en-1-yl)methyl)piperazin-1-yl)benzoyl)-4-(((1R)-3-(morpholin-4-yl)-1-((phenylsulfanyl)methyl)propyl)amino)-3-((trifluoromethyl)sulfonyl)benzenesulfonamide] the “time of peak concentration (Cmax)” value was ~8 h.
